Laboratory results: publication doi:10.1101/512061
No constants are given. Whether binding was seen depends on the method and setting. Binding seen in cells or lysates may run through a third protein. Some results given as binding are weak or reduced against the parent protein; the word gives no strength. Tags and fused reporters may be left off the sequences shown.

Sequences of proteins named here, by UniProt entry; tags and fusion partners are left off.
UniProt Q14980: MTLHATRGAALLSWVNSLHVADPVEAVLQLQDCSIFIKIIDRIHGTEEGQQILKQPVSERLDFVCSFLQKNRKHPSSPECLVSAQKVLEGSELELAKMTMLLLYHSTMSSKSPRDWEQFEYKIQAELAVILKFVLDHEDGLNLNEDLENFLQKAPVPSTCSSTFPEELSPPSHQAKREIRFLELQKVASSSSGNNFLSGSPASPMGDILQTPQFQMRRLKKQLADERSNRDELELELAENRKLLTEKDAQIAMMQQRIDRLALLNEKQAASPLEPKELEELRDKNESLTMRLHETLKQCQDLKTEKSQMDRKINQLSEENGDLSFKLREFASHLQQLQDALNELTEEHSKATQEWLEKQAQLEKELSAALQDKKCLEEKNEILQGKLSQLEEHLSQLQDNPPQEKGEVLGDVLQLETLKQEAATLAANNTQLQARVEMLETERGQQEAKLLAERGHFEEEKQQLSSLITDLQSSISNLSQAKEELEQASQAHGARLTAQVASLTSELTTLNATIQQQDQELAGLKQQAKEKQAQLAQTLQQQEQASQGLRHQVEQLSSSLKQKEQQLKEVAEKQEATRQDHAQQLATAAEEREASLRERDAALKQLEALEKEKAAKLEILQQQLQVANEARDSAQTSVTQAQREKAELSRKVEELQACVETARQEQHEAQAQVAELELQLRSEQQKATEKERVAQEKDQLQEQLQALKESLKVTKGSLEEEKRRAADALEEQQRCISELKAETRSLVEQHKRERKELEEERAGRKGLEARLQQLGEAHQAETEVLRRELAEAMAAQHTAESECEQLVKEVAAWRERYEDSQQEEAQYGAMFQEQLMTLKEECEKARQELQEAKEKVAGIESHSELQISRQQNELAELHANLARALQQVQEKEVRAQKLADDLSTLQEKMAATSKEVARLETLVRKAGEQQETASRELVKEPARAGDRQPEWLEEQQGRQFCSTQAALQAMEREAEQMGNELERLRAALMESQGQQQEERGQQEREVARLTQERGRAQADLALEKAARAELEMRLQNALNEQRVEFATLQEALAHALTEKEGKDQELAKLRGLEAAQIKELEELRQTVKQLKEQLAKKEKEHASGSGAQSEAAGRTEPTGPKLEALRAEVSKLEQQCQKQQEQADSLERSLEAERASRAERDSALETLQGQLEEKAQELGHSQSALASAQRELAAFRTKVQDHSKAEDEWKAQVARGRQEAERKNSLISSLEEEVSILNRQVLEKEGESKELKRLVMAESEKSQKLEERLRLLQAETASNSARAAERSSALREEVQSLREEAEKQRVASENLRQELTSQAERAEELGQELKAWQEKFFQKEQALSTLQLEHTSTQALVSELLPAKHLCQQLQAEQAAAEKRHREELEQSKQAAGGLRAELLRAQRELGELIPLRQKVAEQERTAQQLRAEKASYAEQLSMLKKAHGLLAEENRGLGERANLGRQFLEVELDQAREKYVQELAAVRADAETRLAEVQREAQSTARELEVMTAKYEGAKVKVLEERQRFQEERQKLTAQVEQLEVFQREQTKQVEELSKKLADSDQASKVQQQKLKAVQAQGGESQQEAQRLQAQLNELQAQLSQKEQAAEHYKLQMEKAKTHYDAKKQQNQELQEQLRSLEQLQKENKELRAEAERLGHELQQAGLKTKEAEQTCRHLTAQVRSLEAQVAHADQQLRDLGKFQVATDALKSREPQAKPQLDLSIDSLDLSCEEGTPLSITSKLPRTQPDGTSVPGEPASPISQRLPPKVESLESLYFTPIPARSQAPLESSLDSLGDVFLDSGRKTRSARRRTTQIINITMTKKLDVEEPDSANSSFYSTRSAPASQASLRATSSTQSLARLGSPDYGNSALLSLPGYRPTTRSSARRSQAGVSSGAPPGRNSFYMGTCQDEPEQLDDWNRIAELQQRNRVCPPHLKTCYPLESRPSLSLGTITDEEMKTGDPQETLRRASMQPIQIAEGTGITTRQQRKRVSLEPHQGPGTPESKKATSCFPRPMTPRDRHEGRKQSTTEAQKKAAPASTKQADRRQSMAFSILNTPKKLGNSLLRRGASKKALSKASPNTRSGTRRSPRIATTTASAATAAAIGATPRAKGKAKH

T1: Flag-IFT27 (UniProt Q9BW83)
T1 sequence: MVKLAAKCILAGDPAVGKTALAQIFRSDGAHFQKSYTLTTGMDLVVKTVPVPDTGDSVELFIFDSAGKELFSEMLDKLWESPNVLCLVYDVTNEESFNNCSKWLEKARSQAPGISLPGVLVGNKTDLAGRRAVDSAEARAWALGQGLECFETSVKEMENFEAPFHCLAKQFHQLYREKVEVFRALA


Target: T1, Flag-IFT27
Test: co-IP

Row | Molecule | binding
1 | YFP-NuMA (from UniProt Q14980 1-2115) | binds
2 | IFT88 (protein, UniProt Q13099 1-824) MMQNVHLAPETDEDDLYSGYNDYNPIYDIEELENDAAFQQAVRTSHGRRPPITAKISSTAVTRPIATGYGSKTSLASSIGRPMTGAIQDGVTRPMTAVRAAGFTKAALRGSAFDPLSQSRGPASPLEAKKKDSPEEKIKQLEKEVNELVEESCIANSCGDLKLALEKAKDAGRKERVLVRQREQVTTPENINLDLTYSVLFNLASQYSVNEMYAEALNTYQVIVKNKMFSNAGILKMNMGNIYLKQRNYSKAIKFYRMALDQVPSVNKQMRIKIMQNIGVTFIQAGQYSDAINSYEHIMSMAPNLKAGYNLTICYFAIGDREKMKKAFQKLITVPLEIDEDKYISPSDDPHTNLVTEAIKNDHLRQMERERKAMAEKYIMTSAKLIAPVIETSFAAGYDWCVEVVKASQYVELANDLEINKAVTYLRQKDYNQAVEILKVLEKKDSRVKSAAATNLSALYYMGKDFAQASSYADIAVNSDRYNPAALTNKGNTVFANGDYEKAAEFYKEALRNDSSCTEALYNIGLTYEKLNRLDEALDCFLKLHAILRNSAEVLYQIANIYELMENPSQAIEWLMQVVSVIPTDPQVLSKLGELYDREGDKSQAFQYYYESYRYFPCNIEVIEWLGAYYIDTQFWEKAIQYFERASLIQPTQVKWQLMVASCFRRSGNYQKALDTYKDTHRKFPENVECLRFLVRLCTDLGLKDAQEYARKLKRLEKMKEIREQRIKSGRDGSGGSRGKREGSASGDSGQNYSASSKGERLSARLRALPGTNEPYESSSNKEIDASYVDPLGPQIERPKTAAKKRIDEDDFADEELGDDLLPE | binds
